Experimental data published in PMC10258837 (Journal of the American Chemical Society, 2021).

System: AnpF orthologs
Assay: amino acid-dependent ATP-PPi exchange, AnpF orthologs
Type: biochemical
Conditions: amino acid-dependent ATP-PPi exchange assay

N[C@@H](Cc1ccc(O)cc1)C(=O)O [L-Tyr]
A domain activation by AnpF orthologs: no activity
